The text below walks through data of paper PMC5733394.

The chains behind the UniProt entries cited, without tags or fusion partners. Residues count along the entry.
UniProt G3I8R9, residues 19-654: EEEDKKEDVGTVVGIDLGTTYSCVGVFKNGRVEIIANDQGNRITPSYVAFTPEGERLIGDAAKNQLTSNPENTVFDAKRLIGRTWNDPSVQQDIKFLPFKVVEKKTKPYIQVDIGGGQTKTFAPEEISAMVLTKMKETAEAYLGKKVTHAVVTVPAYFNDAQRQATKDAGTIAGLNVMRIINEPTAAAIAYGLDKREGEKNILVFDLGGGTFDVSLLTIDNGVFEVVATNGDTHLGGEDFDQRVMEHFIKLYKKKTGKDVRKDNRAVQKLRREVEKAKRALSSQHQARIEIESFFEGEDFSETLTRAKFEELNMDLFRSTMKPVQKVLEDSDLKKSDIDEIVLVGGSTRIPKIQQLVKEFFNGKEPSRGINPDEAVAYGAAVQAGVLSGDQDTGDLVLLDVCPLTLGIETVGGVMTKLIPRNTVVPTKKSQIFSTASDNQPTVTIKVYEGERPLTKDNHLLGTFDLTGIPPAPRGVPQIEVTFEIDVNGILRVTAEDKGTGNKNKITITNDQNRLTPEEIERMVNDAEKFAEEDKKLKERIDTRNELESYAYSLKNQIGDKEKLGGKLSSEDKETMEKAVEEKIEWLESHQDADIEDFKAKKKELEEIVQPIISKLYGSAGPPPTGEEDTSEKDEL

Results are given in words; binding and its absence hold for the method and conditions named. Some results given as binding are weak or reduced against the parent protein; the word gives no strength.

The experiment has as its target BiP (purified, wild type) (UniProt G3I8R9). In words: FRET or BRET; kinetic with competitor; 0.2 μM donor and acceptor, 50 μM BiP, 2.5 μM Smt3-ERdj4-MBP, 2 mM ATP with regeneration system; at 60 min CH1 heptapeptide and/or 2.5 μM ERdj6 J domain added; both purified.

In the case of HTFPAVL [CH1 heptapeptide], the binding entry is “binds”.
